Values from PubChem BioAssay AID504774 (Drosophila RNAi Screening Center, 2011).
In all, the deposit lists about 23,000 reagents; below is an unselected part of those with a known target gene and a result. 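Values are quantile-normalised luminescence on an arbitrary scale; higher means more cells surviving MMS.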 Further read-outs or replicates are left out here.

Assay: 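Fly genes whose loss alters survival after alkylation damage to DNA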 (primary screen)
System: Drosophila Kc167 cells
Reagent: long dsRNA against Drosophila genes, about 0.25 µg dsRNA per well
Timing: about 6 days: 3 days knock-down, then 3 days with or without MMS
Treatment: methyl methanesulphonate 0.004% (w/v) for 3 days after knock-down
Read-out: 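ATP-dependent luminescence as a measure of live cells in MMS-exposed wells, quantile normalised within each plate, with replicate values also given as a mean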
Scale: mean viability with MMS and viability with MMS: higher = more surviving cells after MMS

Target gene | dsRNA | mean viability with MMS | viability with MMS, replicate 1
CG32259 | DRSC08082 | 3.57e6 | 4.12e6
CG4116 | DRSC18348 | 3.46e6 | 3.99e6
CG34045 | DRSC05787 | 3.56e6 | 3.98e6
CG7702 | DRSC16293 | 3.47e6 | 3.84e6
Serinc | DRSC11296 | 3.45e6 | 3.93e6
CG11857 | DRSC14411 | 3.59e6 | 4.09e6
CG34331 | DRSC20679 | 3.51e6 | 3.96e6
Ggamma1 | DRSC07435 | 3.50e6 | 3.93e6
E(z) | DRSC11147 | 3.49e6 | 3.97e6
Cad74A | DRSC10636 | 3.50e6 | 4.00e6
CG33490 | DRSC10587 | 3.58e6 | 4.13e6
tld | DRSC17084 | 3.42e6 | 3.81e6
Msr-110 | DRSC11227 | 3.44e6 | 3.75e6
Rpn3 | DRSC03318 | 3.19e6 | 3.73e6
CG34028 | DRSC17614 | 3.62e6 | 4.13e6
asl | DRSC12319 | 3.64e6 | 4.06e6
opm | DRSC20141 | 3.17e6 | 4.04e6
opm | DRSC22135 | 3.13e6 | 3.85e6
CG10366 | DRSC02046 | 3.61e6 | 3.86e6
CG15080 | DRSC06511 | 3.37e6 | 3.72e6
Ebp | DRSC04048 | 3.69e6 | 4.32e6
crp | DRSC03515 | 3.33e6 | 3.78e6
ago | DRSC08463 | 3.53e6 | 3.88e6
Ir51b | DRSC05540 | 3.62e6 | 4.07e6
CG34174 | DRSC00101 | 3.61e6 | 4.13e6
CaMKI | DRSC17162 | 3.79e6 | 4.15e6
CG16852 | DRSC01876 | 3.64e6 | 4.11e6
PPO3 | DRSC04325 | 3.60e6 | 3.83e6
mRpS2 | DRSC00550 | 3.67e6 | 4.10e6
CG15207 (retired record) | DRSC19653 | 3.66e6 | 4.19e6
CG15207 (retired record) | DRSC22791 | 3.49e6 | 3.95e6
CG13538 | DRSC04180 | 3.49e6 | 4.01e6
Ir25a | DRSC00462 | 3.55e6 | 3.98e6
Kap-alpha3 | DRSC16976 | 3.51e6 | 4.05e6
CG2926 | DRSC12321 | 3.87e6 | 4.54e6
Rev1 | DRSC08264 | 3.39e6 | 3.91e6
S-Lap1 | DRSC10627 | 3.69e6 | 4.24e6
CG7326 | DRSC20037 | 3.61e6 | 4.12e6
CG9547 | DRSC03260 | 3.43e6 | 4.00e6
Ogdh | DRSC09854 | 3.77e6 | 4.29e6
Ogdh | DRSC09855 | 3.54e6 | 3.98e6
Dr | DRSC17002 | 3.72e6 | 4.18e6
Dr | DRSC22708 | 3.12e6 | 3.74e6
CG2065 | DRSC06813 | 3.44e6 | 3.82e6
CG2065 | DRSC21328 | 3.44e6 | 3.90e6
mad2 | DRSC10274 | 3.50e6 | 3.97e6
CG4017 | DRSC02733 | 3.52e6 | 4.03e6
CG6178 | DRSC15984 | 3.52e6 | 4.01e6
CG7579 | DRSC10885 | 3.55e6 | 4.16e6
Scox | DRSC03117 | 3.39e6 | 3.77e6
CG3124 | DRSC04339 | 2.80e6 | 3.43e6
CG3124 | DRSC23062 | 3.55e6 | 3.99e6
CG4098 | DRSC10399 | 3.65e6 | 4.04e6
DCP1 | DRSC04091 | 3.47e6 | 3.93e6
orion | DRSC18213 | 3.79e6 | 4.37e6
orion | DRSC18214 | 3.59e6 | 4.01e6
CG8197 | DRSC07105 | 3.59e6 | 4.03e6
Gnpnat | DRSC15405 | 3.72e6 | 4.09e6
Lip4 | DRSC02930 | 3.49e6 | 3.93e6
tral | DRSC09779 | 3.44e6 | 3.88e6
CG3544 | DRSC00613 | 3.50e6 | 3.85e6
otk2 | DRSC07303 | 3.57e6 | 4.06e6
Sik2 | DRSC18522 | 3.51e6 | 4.17e6
Mur29B | DRSC01018 | 3.87e6 | 4.29e6
Mur29B | DRSC02376 | 3.79e6 | 4.24e6
Unr | DRSC10761 | 3.64e6 | 4.17e6
CG4972 | DRSC02798 | 3.66e6 | 3.99e6
Gem2 | DRSC09721 | 3.63e6 | 4.23e6
